Reference: paper PMC12142043, “Cell-based high-content approach for SARS-CoV-2 neutralization identifies unique monoclonal antibodies and PI3K pathway inhibitors” (Frontiers in Cell and Developmental Biology, 2025)

System: SARS-CoV-2 (USA-WA1/2020) in Calu-3 cells
Format: cell-based

Q: Which “dsRNA signal, AU High” value does the source give for `Nc1ccc(C(=O)Nc2cccc(-c3nc(N4CCOCC4)c4oc5ncccc5c4n3)c2)cn1` [YM201636] here?
A: 7268.3

Q: What about the “dsRNA signal, AU Low” value of the same compound?
A: 43298.6
